# Experimental data: the supplement of paper PMC8728848
# Some of the results follow.
# B1: truncCC1G-10077 (Coprinopsis cinerea) (protein)
# chain: MHHHHHHHHPLPSPGPGWVLIQNGGTGKFLCSTPSGDIGTADGPETVYDYSVQWRFIQREYTGVYHVVNRATGAYLRQIGTSMPSIGLAEENDDELKDWWMLETYDNSEIGLASIISRWTGNVLDHYGGVSVQALDNNTENSYRSWAIIPARDWLTSFSLVNGQGGLCLAAQYAREETRLSTTANVNDFHAQWVFRKPSGSSGYTIQNKYNNHYVGGTSARWELVVCCNKYFGIRNTSTQKYLAIEDGQVTFQDQDMTDRKQCWELCSGRATDTSGNDYDLIYMDDDLLEVMIPWVGDKQGDLKHYIEKRATKKPPKDKGGWQLPAAGLIKKPKFNDIRQLLQELIEQWEWDVVNEEREQIQTLVSIDEAEARRLLGRRPHPDIVAAYQRSRSSTLFRIDRQGYFNIAGDRYVNIQGQYGDDSYFHIALPVGVRFGREQIRRFLRDSLDRSTSVTITPTTCKPPSGGPDYNRDPDSDGDNSWIKWTIAVVGTSAIKHSEL
# Columns and labels:
# Assay in all cases: glycan array binding signal (z-score within array); higher = stronger binding
# Settings in all cases: glycan notation: IUPAC condensed, linker removed
# [1] = target: GlcNAc(b1-4)GlcNAc(b1-4)GlcNAc(b1-4)GlcNAc(b1-4)GlcNAc(b1-4)GlcNAc
# Summary of the method: (§1)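 The binding signal is a Z-score computed within each array. Data were drawn from 3228 arrays in the Consortium for Functional Glycomics database, restricted to those with a known protein sequence. Scores were averaged over arrays of the same protein sequence at different concentrations or buffers, and over linkers, and negative values can be taken as non-binding.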
# [2] = target: GlcNAc(b1-4)[GlcNAc(b1-6)]GalNAc
# Summary of the method: as §1
# [3] = target: GlcNAc(b1-6)Gal(b1-4)GlcNAc
# Summary of the method: as §1
# GlcNAc(b1-6)GalNAc = target: GlcNAc(b1-6)GalNAc
# Summary of the method: as §1
# [4] = target: GlcNAc6S(b1-3)Gal(b1-4)GlcNAc
# Summary of the method: as §1
# Kdn(a2-3)Gal(b1-3)GalNAc = target: Kdn(a2-3)Gal(b1-3)GalNAc
# Summary of the method: as §1
# Kdn(a2-3)Gal(b1-3)GlcNAc = target: Kdn(a2-3)Gal(b1-3)GlcNAc
# Summary of the method: as §1
# Kdn(a2-3)Gal(b1-4)Glc = target: Kdn(a2-3)Gal(b1-4)Glc
# Summary of the method: as §1
# Kdn(a2-3)Gal(b1-4)GlcNAc = target: Kdn(a2-3)Gal(b1-4)GlcNAc
# Summary of the method: as §1
# [5] = target: Kdn(a2-3)Gal(b1-4)[Fuc(a1-3)]GlcNAc
# Summary of the method: as §1
# Kdn(a2-6)Gal(b1-4)GlcNAc = target: Kdn(a2-6)Gal(b1-4)GlcNAc
# Summary of the method: as §1
# [6] = target: Man(a1-2)Man(a1-2)Man(a1-3)Man
# Summary of the method: as §1
# [7] = target: Man(a1-2)Man(a1-2)Man(a1-6)[Man(a1-3)]Man
# Summary of the method: as §1
# Man(a1-2)Man(a1-3)Man = target: Man(a1-2)Man(a1-3)Man
# Summary of the method: as §1
# [8] = target: Man(a1-2)Man(a1-3)[Man(a1-2)Man(a1-6)]Man
# Summary of the method: as §1
# [9] = target: Man(a1-2)Man(a1-3)[Man(a1-2)Man(a1-6)]Man(a1-6)[Man(a1-2)Man(a1-2)Man(a1-3)]Man
# Summary of the method: as §1
# [10] = target: Man(a1-2)Man(a1-3)[Man(a1-2)Man(a1-6)]Man(a1-6)[Man(a1-2)Man(a1-2)Man(a1-3)]Man(b1-4)GlcNAc(b1-4)GlcNAc
# Summary of the method: as §1
# [11] = target: Man(a1-2)Man(a1-3)[Man(a1-6)]Man(a1-6)[Man(a1-2)Man(a1-3)]Man(b1-4)GlcNAc(b1-4)GlcNAc
# Summary of the method: as §1
# [12] = target: Man(a1-2)Man(a1-6)[Man(a1-3)]Man(a1-6)[Man(a1-2)Man(a1-2)Man(a1-3)]Man
# Summary of the method: as §1
# [13] = target: Man(a1-2)Man(a1-6)[Man(a1-3)]Man(a1-6)[Man(a1-2)Man(a1-2)Man(a1-3)]Man(b1-4)GlcNAc(b1-4)GlcNAc
# Summary of the method: as §1
# Man(a1-3)[Man(a1-6)]Man = target: Man(a1-3)[Man(a1-6)]Man
# Summary of the method: as §1
# [14] = target: Man(a1-3)[Man(a1-6)]Man(a1-6)[Man(a1-2)Man(a1-3)]Man(b1-4)GlcNAc(b1-4)GlcNAc
# Summary of the method: as §1
# [15] = target: Man(a1-3)[Man(a1-6)]Man(a1-6)[Man(a1-3)]Man
# Summary of the method: as §1
# [16] = target: Man(a1-3)[Man(a1-6)]Man(a1-6)[Man(a1-3)]Man(b1-4)GlcNAc(b1-4)GlcNAc
# Summary of the method: as §1
# [17] = target: Man(a1-3)[Man(a1-6)]Man(b1-4)GlcNAc(b1-4)GlcNAc
# Summary of the method: as §1
# [18] = target: Man(a1-3)[Man(a1-6)]Man(b1-4)GlcNAc(b1-4)[Fuc(a1-6)]GlcNAc
# Summary of the method: as §1
# Man(a1-6)Man = target: Man(a1-6)Man
# Summary of the method: as §1
# Man(b1-4)GlcNAc = target: Man(b1-4)GlcNAc
# Summary of the method: as §1
# MurNAc(b1-4)GlcNAc = target: MurNAc(b1-4)GlcNAc
# Summary of the method: as §1
# Neu5Ac(a2-3)Gal = target: Neu5Ac(a2-3)Gal
# Summary of the method: as §1
# [19] = target: Neu5Ac(a2-3)Gal(b1-3)GalNAc
# Summary of the method: as §1
# [20] = target: Neu5Ac(a2-3)Gal(b1-3)GalNAc(b1-3)Gal(a1-4)Gal(b1-4)Glc
# Summary of the method: as §1
# [21] = target: Neu5Ac(a2-3)Gal(b1-3)GalNAc(b1-4)Gal(b1-4)Glc
# Summary of the method: as §1
# [22] = target: Neu5Ac(a2-3)Gal(b1-3)GalNAc(b1-4)[Neu5Ac(a2-3)]Gal(b1-4)Glc
# Summary of the method: as §1
# [23] = target: Neu5Ac(a2-3)Gal(b1-3)GalNAc(b1-4)[Neu5Ac(a2-8)Neu5Ac(a2-3)]Gal(b1-4)Glc
# Summary of the method: as §1
# [24] = target: Neu5Ac(a2-3)Gal(b1-3)GalNAc6S
# Summary of the method: as §1
# [25] = target: Neu5Ac(a2-3)Gal(b1-3)GlcNAc
# Summary of the method: as §1
# [26] = target: Neu5Ac(a2-3)Gal(b1-3)GlcNAc(b1-2)Man
# Summary of the method: as §1
# [27] = target: Neu5Ac(a2-3)Gal(b1-3)GlcNAc(b1-2)Man(a1-3)[GlcNAc(b1-4)][Neu5Ac(a2-3)Gal(b1-3)GlcNAc(b1-2)Man(a1-6)]Man(b1-4)GlcNAc(b1-4)GlcNAc
# Summary of the method: as §1
# [28] = target: Neu5Ac(a2-3)Gal(b1-3)GlcNAc(b1-2)Man(a1-3)[Neu5Ac(a2-3)Gal(b1-3)GlcNAc(b1-2)Man(a1-6)]Man(b1-4)GlcNAc(b1-4)GlcNAc
# Summary of the method: as §1
# [29] = target: Neu5Ac(a2-3)Gal(b1-3)GlcNAc(b1-2)[Neu5Ac(a2-3)Gal(b1-3)GlcNAc(b1-4)]Man(a1-6)[Neu5Ac(a2-3)Gal(b1-3)GlcNAc(b1-2)Man(a1-3)]Man(b1-4)GlcNAc(b1-4)GlcNAc
# Summary of the method: as §1
# [30] = target: Neu5Ac(a2-3)Gal(b1-3)GlcNAc(b1-3)Gal(b1-3)GlcNAc
# Summary of the method: as §1
# [31] = target: Neu5Ac(a2-3)Gal(b1-3)GlcNAc(b1-3)Gal(b1-4)GlcNAc
# Summary of the method: as §1
# [32] = target: Neu5Ac(a2-3)Gal(b1-3)GlcNAc(b1-3)GalNAc
# Summary of the method: as §1
# [33] = target: Neu5Ac(a2-3)Gal(b1-3)GlcNAc(b1-6)GalNAc
# Summary of the method: as §1
binder,measurement,setting,value
B1,glycan array binding signal (z-score),[1],-0.144
same,glycan array binding signal (z-score),[2],-0.863
same,glycan array binding signal (z-score),[3],-0.27
same,glycan array binding signal (z-score),GlcNAc(b1-6)GalNAc,-0.685
same,glycan array binding signal (z-score),[4],0.038
same,glycan array binding signal (z-score),Kdn(a2-3)Gal(b1-3)GalNAc,1.66
same,glycan array binding signal (z-score),Kdn(a2-3)Gal(b1-3)GlcNAc,-0.052
same,glycan array binding signal (z-score),Kdn(a2-3)Gal(b1-4)Glc,0.478
same,glycan array binding signal (z-score),Kdn(a2-3)Gal(b1-4)GlcNAc,0.697
same,glycan array binding signal (z-score),[5],1.26
same,glycan array binding signal (z-score),Kdn(a2-6)Gal(b1-4)GlcNAc,0.939
same,glycan array binding signal (z-score),[6],-1.01
same,glycan array binding signal (z-score),[7],0.989
same,glycan array binding signal (z-score),Man(a1-2)Man(a1-3)Man,-0.749
same,glycan array binding signal (z-score),[8],-0.833
same,glycan array binding signal (z-score),[9],-0.731
same,glycan array binding signal (z-score),[10],0.343
same,glycan array binding signal (z-score),[11],-0.602
same,glycan array binding signal (z-score),[12],-1.18
same,glycan array binding signal (z-score),[13],0.539
same,glycan array binding signal (z-score),Man(a1-3)[Man(a1-6)]Man,-0.352
same,glycan array binding signal (z-score),[14],-0.063
same,glycan array binding signal (z-score),[15],0.384
same,glycan array binding signal (z-score),[16],1.81
same,glycan array binding signal (z-score),[17],-0.43
same,glycan array binding signal (z-score),[18],-0.725
same,glycan array binding signal (z-score),Man(a1-6)Man,2.68
same,glycan array binding signal (z-score),Man(b1-4)GlcNAc,0.574
same,glycan array binding signal (z-score),MurNAc(b1-4)GlcNAc,0.242
same,glycan array binding signal (z-score),Neu5Ac(a2-3)Gal,-0.757
same,glycan array binding signal (z-score),[19],1.15
same,glycan array binding signal (z-score),[20],0.477
same,glycan array binding signal (z-score),[21],0.287
same,glycan array binding signal (z-score),[22],-0.557
same,glycan array binding signal (z-score),[23],0.156
same,glycan array binding signal (z-score),[24],-0.721
same,glycan array binding signal (z-score),[25],-0.093
same,glycan array binding signal (z-score),[26],-0.385
same,glycan array binding signal (z-score),[27],-0.397
same,glycan array binding signal (z-score),[28],1.47
same,glycan array binding signal (z-score),[29],1.06
same,glycan array binding signal (z-score),[30],0.721
same,glycan array binding signal (z-score),[31],-0.343
same,glycan array binding signal (z-score),[32],-0.61
same,glycan array binding signal (z-score),[33],-0.615

# An excerpt of these results, as tab-separated lines.
binder	measurement	setting	value
B1	glycan array binding signal (z-score)	Man(a1-3)[Man(a1-6)]Man	-0.352
same	glycan array binding signal (z-score)	[14]	-0.063
